Binding data for one substance are collected here from paper doi:10.1101/2023.03.09.531980.

The chains behind the UniProt entries cited, without tags or fusion partners. Where a name states a change or a piece, a line headed by the entry shows the natural chain unless it says otherwise.
UniProt Q9BVK8: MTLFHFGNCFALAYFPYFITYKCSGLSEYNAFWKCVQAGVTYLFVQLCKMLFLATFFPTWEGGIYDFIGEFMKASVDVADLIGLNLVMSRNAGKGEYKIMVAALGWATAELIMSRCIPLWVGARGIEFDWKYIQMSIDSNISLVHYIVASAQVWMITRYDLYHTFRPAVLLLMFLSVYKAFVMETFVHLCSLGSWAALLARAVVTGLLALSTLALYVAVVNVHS
UniProt Q15155: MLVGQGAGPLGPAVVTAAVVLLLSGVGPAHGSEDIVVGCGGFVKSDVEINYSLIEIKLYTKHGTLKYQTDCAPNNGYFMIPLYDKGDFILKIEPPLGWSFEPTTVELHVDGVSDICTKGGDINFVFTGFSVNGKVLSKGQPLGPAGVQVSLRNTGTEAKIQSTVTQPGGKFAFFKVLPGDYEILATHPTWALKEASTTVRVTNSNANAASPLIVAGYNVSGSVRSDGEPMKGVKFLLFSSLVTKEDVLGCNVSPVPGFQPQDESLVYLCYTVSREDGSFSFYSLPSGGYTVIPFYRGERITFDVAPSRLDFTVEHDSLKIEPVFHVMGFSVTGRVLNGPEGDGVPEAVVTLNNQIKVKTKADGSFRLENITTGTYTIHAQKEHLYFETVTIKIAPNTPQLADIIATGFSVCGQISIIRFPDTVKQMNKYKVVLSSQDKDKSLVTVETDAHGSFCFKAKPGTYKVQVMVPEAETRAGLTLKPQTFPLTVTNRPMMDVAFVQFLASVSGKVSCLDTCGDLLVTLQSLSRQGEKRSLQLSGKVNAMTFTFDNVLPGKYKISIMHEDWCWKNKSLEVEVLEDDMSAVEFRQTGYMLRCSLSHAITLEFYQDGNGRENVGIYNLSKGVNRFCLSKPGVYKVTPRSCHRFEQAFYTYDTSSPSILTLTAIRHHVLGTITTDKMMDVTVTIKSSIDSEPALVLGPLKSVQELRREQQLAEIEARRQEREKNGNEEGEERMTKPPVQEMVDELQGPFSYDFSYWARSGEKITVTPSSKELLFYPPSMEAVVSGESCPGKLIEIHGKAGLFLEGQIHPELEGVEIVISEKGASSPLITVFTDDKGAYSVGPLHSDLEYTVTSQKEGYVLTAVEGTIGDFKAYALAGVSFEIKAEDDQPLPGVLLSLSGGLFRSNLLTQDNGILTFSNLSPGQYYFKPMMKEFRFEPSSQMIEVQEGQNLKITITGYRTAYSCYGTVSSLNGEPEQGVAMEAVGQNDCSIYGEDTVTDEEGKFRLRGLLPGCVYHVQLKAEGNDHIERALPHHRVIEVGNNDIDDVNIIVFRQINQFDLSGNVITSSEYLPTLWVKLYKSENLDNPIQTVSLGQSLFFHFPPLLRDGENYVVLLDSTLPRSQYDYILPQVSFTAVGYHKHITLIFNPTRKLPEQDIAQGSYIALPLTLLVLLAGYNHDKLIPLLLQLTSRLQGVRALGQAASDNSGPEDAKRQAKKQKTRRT

The experiment concerns the target TMEM147-GFP (human) (UniProt Q9BVK8). In words: co-IP + SEC.

No constants are given. Whether binding was seen depends on the method and setting. In cells and extracts the contact can be indirect. Binding can be weak; no strength is given.

NOMO (from UniProt Q15155): the binding result was “binds”.
